# The list shows a part of the results.
# Amino acid sequences for entries named in this document (tags omitted). A change or cut given only in a name is not applied to a line headed by its entry.
# UniProt Q53EZ4: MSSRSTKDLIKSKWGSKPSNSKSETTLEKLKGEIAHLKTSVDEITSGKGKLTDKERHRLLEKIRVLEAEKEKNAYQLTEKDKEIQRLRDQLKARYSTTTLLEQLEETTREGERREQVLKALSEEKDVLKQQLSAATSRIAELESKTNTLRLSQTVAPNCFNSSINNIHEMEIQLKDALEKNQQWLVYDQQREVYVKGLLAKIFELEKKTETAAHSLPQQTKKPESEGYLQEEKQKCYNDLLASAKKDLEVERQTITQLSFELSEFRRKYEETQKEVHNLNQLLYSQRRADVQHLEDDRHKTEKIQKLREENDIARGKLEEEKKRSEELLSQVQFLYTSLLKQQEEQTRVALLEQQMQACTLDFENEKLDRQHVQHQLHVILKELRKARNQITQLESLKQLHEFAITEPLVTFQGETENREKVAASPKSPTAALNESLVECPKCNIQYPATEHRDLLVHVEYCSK
# UniProt P50613: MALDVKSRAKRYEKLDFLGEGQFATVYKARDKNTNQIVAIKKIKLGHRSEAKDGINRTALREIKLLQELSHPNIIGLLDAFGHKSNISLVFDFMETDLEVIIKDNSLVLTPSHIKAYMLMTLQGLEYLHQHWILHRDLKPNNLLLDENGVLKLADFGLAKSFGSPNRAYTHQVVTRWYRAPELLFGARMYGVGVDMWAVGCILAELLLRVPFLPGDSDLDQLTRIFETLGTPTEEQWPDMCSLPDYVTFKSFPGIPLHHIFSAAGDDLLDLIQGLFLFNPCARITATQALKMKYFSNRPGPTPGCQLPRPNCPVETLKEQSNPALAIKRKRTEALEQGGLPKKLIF
# UniProt Q96FF9: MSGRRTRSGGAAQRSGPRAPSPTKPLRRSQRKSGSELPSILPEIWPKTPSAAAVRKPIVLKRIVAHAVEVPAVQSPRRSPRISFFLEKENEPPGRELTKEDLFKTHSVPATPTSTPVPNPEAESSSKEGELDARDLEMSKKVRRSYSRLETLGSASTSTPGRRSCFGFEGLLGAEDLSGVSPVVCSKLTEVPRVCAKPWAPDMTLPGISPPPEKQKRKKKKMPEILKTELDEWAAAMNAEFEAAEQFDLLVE
# UniProt P48960: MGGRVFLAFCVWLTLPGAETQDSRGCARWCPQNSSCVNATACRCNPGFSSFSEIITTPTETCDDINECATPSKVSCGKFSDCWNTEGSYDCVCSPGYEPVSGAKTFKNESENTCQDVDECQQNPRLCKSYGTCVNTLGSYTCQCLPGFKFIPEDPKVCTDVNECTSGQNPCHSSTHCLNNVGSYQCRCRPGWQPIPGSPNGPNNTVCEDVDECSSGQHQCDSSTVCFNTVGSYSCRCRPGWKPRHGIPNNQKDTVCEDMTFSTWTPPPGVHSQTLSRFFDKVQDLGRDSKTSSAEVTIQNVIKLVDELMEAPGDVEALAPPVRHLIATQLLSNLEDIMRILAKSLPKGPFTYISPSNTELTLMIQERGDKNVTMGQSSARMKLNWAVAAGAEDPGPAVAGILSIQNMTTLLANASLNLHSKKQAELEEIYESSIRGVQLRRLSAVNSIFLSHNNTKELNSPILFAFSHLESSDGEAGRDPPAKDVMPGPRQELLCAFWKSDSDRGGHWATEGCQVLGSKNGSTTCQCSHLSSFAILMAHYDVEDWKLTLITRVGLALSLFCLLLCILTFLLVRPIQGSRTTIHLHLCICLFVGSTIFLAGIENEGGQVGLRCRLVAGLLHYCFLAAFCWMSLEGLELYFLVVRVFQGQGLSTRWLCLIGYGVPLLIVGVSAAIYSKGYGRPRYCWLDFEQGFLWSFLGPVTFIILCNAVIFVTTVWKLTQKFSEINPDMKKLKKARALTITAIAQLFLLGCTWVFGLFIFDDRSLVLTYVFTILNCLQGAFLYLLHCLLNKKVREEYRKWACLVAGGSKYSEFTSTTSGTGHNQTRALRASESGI
# UniProt P49427: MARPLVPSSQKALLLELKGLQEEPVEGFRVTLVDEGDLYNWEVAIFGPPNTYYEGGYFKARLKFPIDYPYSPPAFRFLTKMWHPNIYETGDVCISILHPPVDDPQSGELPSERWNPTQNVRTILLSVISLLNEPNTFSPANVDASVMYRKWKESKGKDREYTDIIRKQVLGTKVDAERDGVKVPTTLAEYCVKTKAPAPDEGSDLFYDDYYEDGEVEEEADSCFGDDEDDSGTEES
# UniProt P57076: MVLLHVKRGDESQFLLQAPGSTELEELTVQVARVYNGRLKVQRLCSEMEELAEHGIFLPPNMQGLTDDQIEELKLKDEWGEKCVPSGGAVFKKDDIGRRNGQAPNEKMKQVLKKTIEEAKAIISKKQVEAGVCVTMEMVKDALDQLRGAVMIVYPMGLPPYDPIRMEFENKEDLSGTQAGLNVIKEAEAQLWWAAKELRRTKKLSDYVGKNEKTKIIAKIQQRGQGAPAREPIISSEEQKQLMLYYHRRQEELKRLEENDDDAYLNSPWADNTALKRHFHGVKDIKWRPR
# UniProt Q9NXV6: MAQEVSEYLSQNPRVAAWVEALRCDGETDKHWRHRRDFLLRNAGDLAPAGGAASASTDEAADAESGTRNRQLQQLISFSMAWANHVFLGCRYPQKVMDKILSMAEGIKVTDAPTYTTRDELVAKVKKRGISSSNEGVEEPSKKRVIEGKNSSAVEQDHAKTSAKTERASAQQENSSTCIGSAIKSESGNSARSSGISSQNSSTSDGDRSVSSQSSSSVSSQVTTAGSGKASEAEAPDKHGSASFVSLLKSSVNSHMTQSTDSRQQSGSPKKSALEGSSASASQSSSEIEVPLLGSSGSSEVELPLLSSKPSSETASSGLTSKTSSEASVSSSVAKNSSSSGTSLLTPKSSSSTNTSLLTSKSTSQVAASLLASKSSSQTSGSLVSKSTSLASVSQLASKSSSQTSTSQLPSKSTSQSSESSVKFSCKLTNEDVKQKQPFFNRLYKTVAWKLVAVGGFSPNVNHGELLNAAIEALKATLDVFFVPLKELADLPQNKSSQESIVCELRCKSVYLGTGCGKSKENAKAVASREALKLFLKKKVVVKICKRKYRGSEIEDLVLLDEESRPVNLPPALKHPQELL
# UniProt Q03701: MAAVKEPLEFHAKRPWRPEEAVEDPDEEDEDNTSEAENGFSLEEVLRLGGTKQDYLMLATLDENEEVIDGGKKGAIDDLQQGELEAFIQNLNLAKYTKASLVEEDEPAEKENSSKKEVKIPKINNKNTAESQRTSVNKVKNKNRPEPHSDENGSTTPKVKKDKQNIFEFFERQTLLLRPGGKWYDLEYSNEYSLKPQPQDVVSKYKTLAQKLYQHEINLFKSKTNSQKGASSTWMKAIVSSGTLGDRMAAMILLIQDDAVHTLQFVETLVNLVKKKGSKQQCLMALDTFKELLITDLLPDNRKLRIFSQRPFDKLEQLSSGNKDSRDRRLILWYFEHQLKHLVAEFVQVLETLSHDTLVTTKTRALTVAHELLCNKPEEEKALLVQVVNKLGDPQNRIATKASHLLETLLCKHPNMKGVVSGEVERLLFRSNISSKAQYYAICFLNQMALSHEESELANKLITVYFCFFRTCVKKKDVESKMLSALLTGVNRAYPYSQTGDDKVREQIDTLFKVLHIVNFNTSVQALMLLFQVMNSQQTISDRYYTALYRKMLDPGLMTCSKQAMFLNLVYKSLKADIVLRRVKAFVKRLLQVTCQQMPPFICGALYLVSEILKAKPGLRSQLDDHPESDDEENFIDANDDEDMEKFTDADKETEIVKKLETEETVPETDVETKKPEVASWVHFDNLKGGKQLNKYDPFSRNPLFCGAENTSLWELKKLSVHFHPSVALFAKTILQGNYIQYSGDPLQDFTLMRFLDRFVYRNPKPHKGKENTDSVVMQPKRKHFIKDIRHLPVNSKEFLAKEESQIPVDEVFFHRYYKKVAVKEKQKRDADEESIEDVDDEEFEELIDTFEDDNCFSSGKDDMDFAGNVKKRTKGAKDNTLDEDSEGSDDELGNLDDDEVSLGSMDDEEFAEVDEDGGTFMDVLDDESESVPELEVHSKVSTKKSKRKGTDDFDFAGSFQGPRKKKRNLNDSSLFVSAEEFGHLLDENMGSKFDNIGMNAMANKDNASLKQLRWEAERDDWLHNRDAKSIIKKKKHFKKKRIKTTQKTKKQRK
# UniProt Q9BV73: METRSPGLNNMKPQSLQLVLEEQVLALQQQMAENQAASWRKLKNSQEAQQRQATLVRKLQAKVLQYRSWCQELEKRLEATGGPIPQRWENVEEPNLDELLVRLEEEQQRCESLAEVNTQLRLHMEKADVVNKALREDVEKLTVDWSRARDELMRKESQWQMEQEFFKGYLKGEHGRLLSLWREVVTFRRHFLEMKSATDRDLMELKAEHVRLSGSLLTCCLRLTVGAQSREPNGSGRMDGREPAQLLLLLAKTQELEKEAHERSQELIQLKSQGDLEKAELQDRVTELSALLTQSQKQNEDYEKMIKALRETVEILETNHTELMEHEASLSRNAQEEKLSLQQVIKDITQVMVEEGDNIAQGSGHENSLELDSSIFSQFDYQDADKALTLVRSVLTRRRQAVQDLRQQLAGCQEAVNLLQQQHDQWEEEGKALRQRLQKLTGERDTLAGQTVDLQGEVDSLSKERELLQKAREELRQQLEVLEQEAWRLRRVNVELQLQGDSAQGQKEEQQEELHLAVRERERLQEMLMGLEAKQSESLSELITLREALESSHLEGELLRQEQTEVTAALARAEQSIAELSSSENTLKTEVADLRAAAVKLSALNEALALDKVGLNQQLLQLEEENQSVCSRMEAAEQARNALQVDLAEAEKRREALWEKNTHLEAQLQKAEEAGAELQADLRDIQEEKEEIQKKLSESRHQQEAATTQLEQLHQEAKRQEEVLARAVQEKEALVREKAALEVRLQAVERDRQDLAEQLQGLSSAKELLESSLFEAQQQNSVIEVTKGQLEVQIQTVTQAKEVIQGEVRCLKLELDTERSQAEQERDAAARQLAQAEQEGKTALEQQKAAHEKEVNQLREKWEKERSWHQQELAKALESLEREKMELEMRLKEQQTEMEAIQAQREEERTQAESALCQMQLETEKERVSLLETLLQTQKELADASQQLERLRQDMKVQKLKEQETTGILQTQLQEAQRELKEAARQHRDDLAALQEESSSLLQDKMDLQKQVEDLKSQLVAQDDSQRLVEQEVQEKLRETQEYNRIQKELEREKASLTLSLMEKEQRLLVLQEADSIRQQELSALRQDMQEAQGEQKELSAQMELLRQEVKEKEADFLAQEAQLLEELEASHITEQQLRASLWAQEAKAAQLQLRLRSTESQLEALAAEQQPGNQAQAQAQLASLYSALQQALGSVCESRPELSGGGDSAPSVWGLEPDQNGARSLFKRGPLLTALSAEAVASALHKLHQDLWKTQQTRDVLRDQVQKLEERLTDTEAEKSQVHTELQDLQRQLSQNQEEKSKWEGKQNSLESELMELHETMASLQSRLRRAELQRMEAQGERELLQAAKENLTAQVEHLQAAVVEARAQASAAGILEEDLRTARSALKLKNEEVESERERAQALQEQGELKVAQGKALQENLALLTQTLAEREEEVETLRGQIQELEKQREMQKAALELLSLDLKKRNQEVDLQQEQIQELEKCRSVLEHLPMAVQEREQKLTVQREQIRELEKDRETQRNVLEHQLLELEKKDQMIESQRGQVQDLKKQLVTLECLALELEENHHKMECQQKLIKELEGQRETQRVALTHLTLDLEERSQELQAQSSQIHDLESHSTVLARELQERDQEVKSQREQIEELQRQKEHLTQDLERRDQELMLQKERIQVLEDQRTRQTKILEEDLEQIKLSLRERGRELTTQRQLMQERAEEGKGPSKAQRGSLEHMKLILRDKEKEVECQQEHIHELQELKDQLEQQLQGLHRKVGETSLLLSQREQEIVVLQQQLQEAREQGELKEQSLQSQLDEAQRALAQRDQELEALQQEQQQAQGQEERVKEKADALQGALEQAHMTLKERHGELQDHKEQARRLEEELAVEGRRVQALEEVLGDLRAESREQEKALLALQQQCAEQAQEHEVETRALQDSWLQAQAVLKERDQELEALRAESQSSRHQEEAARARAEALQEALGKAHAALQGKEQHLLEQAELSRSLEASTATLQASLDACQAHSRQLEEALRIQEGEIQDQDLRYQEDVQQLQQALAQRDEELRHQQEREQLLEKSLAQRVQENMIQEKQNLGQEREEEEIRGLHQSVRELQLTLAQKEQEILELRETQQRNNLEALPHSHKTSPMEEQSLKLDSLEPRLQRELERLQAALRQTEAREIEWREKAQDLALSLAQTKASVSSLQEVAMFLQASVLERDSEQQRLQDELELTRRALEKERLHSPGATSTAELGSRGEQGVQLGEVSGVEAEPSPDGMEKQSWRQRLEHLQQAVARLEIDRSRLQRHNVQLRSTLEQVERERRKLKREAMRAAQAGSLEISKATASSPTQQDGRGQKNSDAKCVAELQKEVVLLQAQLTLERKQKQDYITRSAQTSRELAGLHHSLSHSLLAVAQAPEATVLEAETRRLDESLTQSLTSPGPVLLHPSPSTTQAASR
# How the values were obtained:
# Experiment in all cases: log2 fold change, soluble protein after heating vs DMSO (PISA); higher = thermal stabilisation; K562 lysate, 10 uM; active = over 0.2 and 3.5 SD of the protein, either way, in both replicates (recomputed)
# alvocidib = compound: CN1CC[C@H](c2c(O)cc(O)c3c(=O)cc(-c4ccccc4Cl)oc23)[C@H](O)C1 [alvocidib]
# In short: (§1)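 Soluble protein was defined as the supernatant remaining after 21,000xg for 90 min, following pooling of heated aliquots and adjustment to 0.5% NP-40 at 4°C. Before that, crude K562 extract at 1 mg/mL protein in PBS pH 7.4 with 1 mM MgCl2 was treated with 10 μM compound for 30 min and heated for 3 min across 48°C-58°C. Quantification used TMTpro 16plex LC-MS/MS with channel sums equalised, and values are log-two fold changes in thermal stability relative to solvent controls from duplicates.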
# Tubastatin A = compound: CN1CCc2c(c3ccccc3n2Cc2ccc(C(=O)NO)cc2)C1 [Tubastatin A]
# In short: as §1
# [1] = compound: CNC(=O)C1=CC=CC=C1NC2=NC(=NC=C2Cl)NC3=C(C=C(C=C3)N4CCOCC4)OC
# In short: as §1
# defactinib = compound: CNC(=O)c1ccc(Nc2ncc(C(F)(F)F)c(NCc3nccnc3N(C)S(C)(=O)=O)n2)cc1 [defactinib]
# In short: as §1
# [2] = compound: CNc1nc(-c2ccc3c(N)n[nH]c3c2)cc(N2C[C@@H](C(=O)NC3CCCCC3)CC[C@H]2C)n1
# In short: as §1
# encorafenib = compound: COC(=O)N[C@@H](C)CNc1nccc(-c2cn(C(C)C)nc2-c2cc(Cl)cc(NS(C)(=O)=O)c2F)n1 [encorafenib]
# In short: as §1
# [3] = compound: COC(=O)[C@H](CCSC)NC(=O)C1=C(C=C(C=C1)NC[C@H](CS)N)C2=CC=CC=C2
# In short: as §1
# alisertib = compound: COc1cc(Nc2ncc3c(n2)-c2ccc(Cl)cc2C(c2c(F)cccc2OC)=NC3)ccc1C(=O)O [alisertib]
# In short: as §1
# [4] = compound: COc1cc2nc(-c3cc(F)ccc3O)nc(N[C@@H]3CNC[C@H]3C(C)(C)O)c2cc1OC
# In short: as §1
# gefitinib = compound: COc1cc2ncnc(Nc3ccc(F)c(Cl)c3)c2cc1OCCCN1CCOCC1 [gefitinib]
# In short: as §1
# lapatinib = compound: CS(=O)(=O)CCNCc1ccc(-c2ccc3ncnc(Nc4ccc(OCc5cccc(F)c5)c(Cl)c4)c3c2)o1 [lapatinib]
# In short: as §1
# pictilisib = compound: CS(=O)(=O)N1CCN(Cc2cc3nc(-c4cccc5[nH]ncc45)nc(N4CCOCC4)c3s2)CC1 [pictilisib]
# In short: as §1
# crizotinib = compound: C[C@@H](Oc1cc(-c2cnn(C3CCNCC3)c2)cnc1N)c1c(Cl)ccc(F)c1Cl [crizotinib]
# In short: as §1
# [5] = compound: C[C@H](C1=CC=C(C=C1)C(=O)NC2=C3C=CNC3=NC=C2)N
# In short: as §1
# duvelisib = compound: C[C@H](Nc1ncnc2nc[nH]c12)c1cc2cccc(Cl)c2c(=O)n1-c1ccccc1 [duvelisib]
# In short: as §1
# gandotinib = compound: Cc1cc(Nc2cc(CN3CCOCC3)c3nc(C)c(Cc4ccc(Cl)cc4F)n3n2)n[nH]1 [gandotinib]
# In short: as §1
# tozasertib = compound: Cc1cc(Nc2cc(N3CCN(C)CC3)nc(Sc3ccc(NC(=O)C4CC4)cc3)n2)n[nH]1 [tozasertib]
# In short: as §1
# doramapimod = compound: Cc1ccc(-n2nc(C(C)(C)C)cc2NC(=O)Nc2ccc(OCCN3CCOCC3)c3ccccc23)cc1 [doramapimod]
# In short: as §1
# bafetinib = compound: Cc1ccc(NC(=O)c2ccc(CN3CC[C@H](N(C)C)C3)c(C(F)(F)F)c2)cc1Nc1nccc(-c2cncnc2)n1 [bafetinib]
# In short: as §1
# [6] = compound: Cc1cccc(CC(=O)N2CCc3c2ccc(-c2cn(C)c4ncnc(N)c24)c3F)n1
# In short: as §1
Target,log2 fold change (alvocidib),log2 fold change (Tubastatin A),log2 fold change [1],log2 fold change (defactinib),log2 fold change [2],log2 fold change (encorafenib),log2 fold change [3],log2 fold change (alisertib),log2 fold change [4],log2 fold change (gefitinib),log2 fold change (lapatinib),log2 fold change (pictilisib),log2 fold change (crizotinib),log2 fold change [5],log2 fold change (duvelisib),log2 fold change (gandotinib),log2 fold change (tozasertib),log2 fold change (doramapimod),log2 fold change (bafetinib),log2 fold change [6]
CETN3 (UniProt O15182),inactive: -0.007,inactive: -0.01,inactive: -0.052,inactive: -0.018,inactive: -0.216,inactive: 0.049,inactive: -0.027,inactive: 0.042,inactive: -0.042,inactive: 0.079,inactive: 0.097,inactive: 0.051,inactive: 0.087,inactive: 0.065,inactive: 0.011,inactive: -0.023,inactive: 0.089,inactive: 0.042,inactive: -0.064,inactive: 0.008
CEP55 (UniProt Q53EZ4),inactive: 0.019,inactive: 0.069,inactive: -0.008,inactive: 0.066,inactive: 0.068,inactive: 0.028,inactive: 0.039,inactive: -0.077,inactive: -0.075,inactive: 0.041,inactive: 0.006,inactive: 0.05,inactive: -0.03,inactive: -0.032,inactive: -0.014,inactive: 0.043,inactive: 0.109,inactive: 0.008,inactive: 0.027,inactive: 0.028
CHAC2 (UniProt Q8WUX2),inactive: 0.223,inactive: 0.019,inactive: 0.092,inactive: 0.028,inactive: 0.019,inactive: 0.06,inactive: 0.003,inactive: -0.039,inactive: -0.007,inactive: 0,inactive: 0.038,inactive: -0.011,inactive: 0.003,active: 0.57,inactive: 0.038,inactive: -0.161,inactive: 0.015,inactive: -0.01,inactive: -0.018,inactive: -0.198
CDK7 (UniProt P50613),inactive: -0.004,inactive: 0.021,inactive: -0.002,inactive: 0.002,inactive: 0.014,inactive: 0.013,inactive: -0.044,inactive: -0.004,inactive: 0.005,inactive: -0.01,inactive: -0.007,inactive: -0.017,inactive: -0.014,inactive: -0.034,inactive: 0.028,inactive: 0.108,inactive: 0.023,inactive: -0.036,inactive: -0.011,inactive: 0.043
CDCA5 (UniProt Q96FF9),inactive: 0.017,inactive: -0.208,inactive: 0.06,inactive: 0.029,inactive: 0.073,inactive: 0.094,inactive: 0.004,inactive: -0.158,inactive: -0.044,inactive: -0.194,inactive: 0.083,inactive: 0.066,inactive: -0.028,inactive: 0.037,inactive: 0.027,inactive: 0.234,inactive: 0.07,inactive: 0.323,inactive: -0.098,inactive: 0.039
CD97 (UniProt P48960),inactive: -0.002,inactive: 0.062,inactive: -0.104,inactive: 0.041,inactive: 0.046,inactive: -0.058,inactive: 0.004,inactive: 0.038,inactive: 0.01,inactive: 0.017,inactive: 0.024,inactive: -0.018,inactive: 0.029,inactive: -0.024,inactive: 0.017,inactive: 0.031,inactive: -0.07,inactive: 0.031,inactive: 0.021,inactive: 0.026
CDC34 (UniProt P49427),inactive: 0.057,inactive: -0.216,inactive: -0.017,inactive: -0.007,inactive: -0.041,inactive: -0.025,inactive: -0.052,inactive: 0.021,inactive: -0.016,inactive: 0.057,inactive: -0.031,inactive: -0.023,inactive: -0.01,inactive: -0.016,inactive: -0.065,inactive: 0.004,inactive: 0.03,inactive: 0.009,inactive: -0.037,inactive: 0
CFAP298 (UniProt P57076),inactive: -0.024,inactive: -0.047,inactive: -0.01,inactive: 0.016,inactive: -0.061,inactive: 0,inactive: -0.002,inactive: 0.017,inactive: 0,inactive: -0.011,inactive: -0.007,inactive: -0.019,inactive: -0.035,inactive: -0.033,inactive: -0.011,inactive: -0.03,inactive: 0.014,inactive: 0.026,inactive: -0.051,inactive: 0.034
CDKN2AIP (UniProt Q9NXV6),inactive: -0.008,inactive: -0.066,inactive: -0.016,inactive: -0.011,inactive: 0.054,inactive: 0.023,active: 0.236,inactive: 0.021,inactive: -0.003,inactive: -0.073,inactive: -0.015,inactive: -0.036,inactive: 0.024,inactive: -0.04,inactive: 0.017,inactive: 0.08,inactive: -0.034,inactive: 0.043,inactive: 0.016,inactive: 0.026
CEBPZ (UniProt Q03701),inactive: -0.021,inactive: -0.074,inactive: -0.006,inactive: -0.047,inactive: 0.002,inactive: 0.098,inactive: -0.072,inactive: 0.01,inactive: -0.026,inactive: -0.002,inactive: 0.025,inactive: 0.014,inactive: -0.043,inactive: 0.016,inactive: -0.035,inactive: -0.009,inactive: -0.002,inactive: 0.034,inactive: -0.113,inactive: 0.008
CDC42EP1 (UniProt Q00587),inactive: -0.014,inactive: 0.019,inactive: 0.006,inactive: -0.095,inactive: 0.056,inactive: 0.087,inactive: 0.001,inactive: 0.117,inactive: 0.023,inactive: 0.103,inactive: -0.023,inactive: 0.053,inactive: -0.014,inactive: 0.099,inactive: 0.195,inactive: -0.05,inactive: 0.017,inactive: 0.071,inactive: -0.012,inactive: 0.117
CDKN1C (UniProt P49918),inactive: -0.035,inactive: -0.056,inactive: 0.025,inactive: -0.186,inactive: -0.067,inactive: -0.037,inactive: -0.019,inactive: -0.082,inactive: 0.046,inactive: -0.136,inactive: 0.027,inactive: -0.033,inactive: 0.105,inactive: -0.025,inactive: -0.035,inactive: -0.046,inactive: -0.095,inactive: -0.045,inactive: 0.049,inactive: 0.071
CDK5RAP2 (UniProt Q96SN8),inactive: 0.018,inactive: -0.15,inactive: 0.009,inactive: 0.037,inactive: -0.007,inactive: 0.045,inactive: 0.012,inactive: -0.007,inactive: -0.144,inactive: -0.021,inactive: -0.182,inactive: -0.04,inactive: -0.035,inactive: -0.032,inactive: 0.023,inactive: -0.092,inactive: 0.024,inactive: 0.003,inactive: 0,inactive: 0.084
CEP250 (UniProt Q9BV73),inactive: -0.006,inactive: -0.012,inactive: 0.051,inactive: -0.065,inactive: 0.216,inactive: -0.036,inactive: 0.039,inactive: -0.041,inactive: -0.07,inactive: -0.024,inactive: 0.015,inactive: -0.012,inactive: -0.007,inactive: -0.06,inactive: 0.079,inactive: -0.041,inactive: 0.116,inactive: 0.038,inactive: -0.012,inactive: 0.067
CDC16 (UniProt Q13042),inactive: 0.012,inactive: -0.1,inactive: 0.002,inactive: -0.024,inactive: -0.097,inactive: 0.032,inactive: -0.133,inactive: -0.008,inactive: -0.037,inactive: 0.017,inactive: 0.016,inactive: 0,inactive: 0.009,inactive: 0.047,inactive: 0.011,inactive: -0.095,inactive: 0.06,inactive: 0.014,inactive: -0.039,inactive: -0.057
CDK4 (UniProt P11802),inactive: 0.11,inactive: -0.028,inactive: 0.065,inactive: 0.091,inactive: -0.001,inactive: 0.065,inactive: 0.025,inactive: 0.002,inactive: 0.012,inactive: 0.002,inactive: -0.039,inactive: -0.008,inactive: 0.017,inactive: -0.115,inactive: -0.004,inactive: 0.006,inactive: -0.078,inactive: -0.046,inactive: -0.038,inactive: 0.011

# 2 entries from above in a different format:
Target | log2 fold change (alvocidib) | log2 fold change (Tubastatin A) | log2 fold change [1] | log2 fold change (defactinib) | log2 fold change [2] | log2 fold change (encorafenib) | log2 fold change [3] | log2 fold change (alisertib) | log2 fold change [4] | log2 fold change (gefitinib) | log2 fold change (lapatinib) | log2 fold change (pictilisib) | log2 fold change (crizotinib) | log2 fold change [5] | log2 fold change (duvelisib) | log2 fold change (gandotinib) | log2 fold change (tozasertib) | log2 fold change (doramapimod) | log2 fold change (bafetinib) | log2 fold change [6]
CFAP298 (UniProt P57076) | inactive: -0.024 | inactive: -0.047 | inactive: -0.01 | inactive: 0.016 | inactive: -0.061 | inactive: 0 | inactive: -0.002 | inactive: 0.017 | inactive: 0 | inactive: -0.011 | inactive: -0.007 | inactive: -0.019 | inactive: -0.035 | inactive: -0.033 | inactive: -0.011 | inactive: -0.03 | inactive: 0.014 | inactive: 0.026 | inactive: -0.051 | inactive: 0.034
CDKN2AIP (UniProt Q9NXV6) | inactive: -0.008 | inactive: -0.066 | inactive: -0.016 | inactive: -0.011 | inactive: 0.054 | inactive: 0.023 | active: 0.236 | inactive: 0.021 | inactive: -0.003 | inactive: -0.073 | inactive: -0.015 | inactive: -0.036 | inactive: 0.024 | inactive: -0.04 | inactive: 0.017 | inactive: 0.08 | inactive: -0.034 | inactive: 0.043 | inactive: 0.016 | inactive: 0.026
